Experimental data from PubChem BioAssay AID236 (DTP/NCI, 2004).
The list does not hold the whole screen: it gathers some chemical classes. Not every dose and run of a compound is shown. T/C gives the treated animals as a percentage of the vehicle group. Where survival is the endpoint, the PubChem record calls one and a half times the control and up active, and a quarter to a half above the control has no call in these data; cut-offs in other NCI protocols can differ. Some entries show no survivor count and are marked so; the dose need not have been tolerated. Schedule codes are those of the source, read here as Q, the interval in days (D) or hours (H), X, the number of doses. Some entries hold several experiments; their values stand side by side, smallest first.

System: AK4 lymphoid leukemia ip, C3AKF1 mice, survival
Test: NCI In Vivo Anticancer Drug Screen. Data for tumor model AK4 Lymphoid Leukemia (intraperitoneal) in C3AKF1 (CHKRF1) mice
Settings: T/C endpoint: median survival time, schedule: Q01DX010 (ip), vehicle: saline, higher T/C = longer survival
Protocol: The antitumor activity of compounds was measured in mice bearing transplantable tumors. Survival or tumor size were measured and the results are expressed as the measurement made in the treated group (T) divided by the measurement made in the vehicle treated control group (C). The tumor model used in this assay is AK4 Lymphoid Leukemia (intraperitoneal) in C3AKF1 (CHKRF1) mice

How did the T/C (dose: 1.25 mg/kg/injection) turn out when ClCCN(CCCl)Cc1nc2ccccc2[nH]1 was run?
Its T/C is 100 % of control [survivor count not shown].

And the T/C (dose: 2.5 mg/kg/injection)?
Its T/C is 94 % of control [survivor count not shown].

And the T/C (dose: 5.0 mg/kg/injection)?
Its T/C is 122 % of control [survivor count not shown].

And the T/C (dose: 10.0 mg/kg/injection)?
The T/C was 105 % of control [survivor count not shown].

Which results are given for NC(Cc1ccccc1N(CCCl)CCCl)C(=O)O (stereo not given)?
T/C (dose: 0.25 mg/kg/injection): 110 [survivor count not shown] and 127 % of control [survivor count not shown]; T/C (dose: 0.5 mg/kg/injection): 140 [survivor count not shown] and 183 % of control [survivor count not shown]; T/C (dose: 1.0 mg/kg/injection): 133 [survivor count not shown] and 170 % of control [survivor count not shown]; T/C (dose: 2.0 mg/kg/injection): 130 % of control [survivor count not shown]

For ClCCNCCCl, which T/C (dose: 18.8 mg/kg/injection) is on record?
Its T/C is 111 % of control [survivor count not shown].

And the T/C (dose: 37.5 mg/kg/injection)?
The T/C was 133 % of control [survivor count not shown].

And the T/C (dose: 75.0 mg/kg/injection)?
The T/C was 138 % of control [survivor count not shown].

NC1CCCCC1.NP(=O)(O)N(CCCl)CCCl was tested. Which T/C (dose: 15.6 mg/kg/injection) did it give?
Its T/C is 131 [survivor count not shown] and 155 % of control [survivor count not shown].

And the T/C (dose: 31.3 mg/kg/injection)?
Its T/C is 137 [survivor count not shown] and 144 % of control [survivor count not shown].

And the T/C (dose: 62.5 mg/kg/injection)?
The T/C was 131 [survivor count not shown] and 161 % of control [survivor count not shown].

What about the T/C (dose: 125.0 mg/kg/injection) of the same compound?
Its T/C is 88 [survivor count not shown] and 100 % of control [survivor count not shown].
